Source: PMC3690481
These are yes or no findings as the source states them, for the method shown. Binding seen in cells or lysates may run through a third protein. Binding calls can cover weak binding; strength is not graded here.

Target: T1, endogenous SHARPIN (human (endogenous in HEK 293ET)) (UniProt Q9H0F6)
T1 sequence: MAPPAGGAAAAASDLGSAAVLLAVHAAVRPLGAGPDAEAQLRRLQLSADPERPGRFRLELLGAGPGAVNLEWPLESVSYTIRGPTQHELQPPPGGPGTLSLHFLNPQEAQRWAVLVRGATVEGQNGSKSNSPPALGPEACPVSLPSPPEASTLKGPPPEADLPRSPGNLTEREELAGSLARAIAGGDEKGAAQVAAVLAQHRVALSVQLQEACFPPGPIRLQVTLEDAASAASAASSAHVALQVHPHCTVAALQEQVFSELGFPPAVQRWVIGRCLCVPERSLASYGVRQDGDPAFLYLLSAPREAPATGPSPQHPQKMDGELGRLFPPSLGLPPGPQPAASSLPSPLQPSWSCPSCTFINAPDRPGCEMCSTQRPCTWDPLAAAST
Test: co-IP; IP of endogenous SHARPIN, unstimulated and after TNFα (100 ng/ml); western blot

## endogenous TNFR1 (receptor)
  binding: binds
